Experimental data published in PMC12037037 (Proceedings of the National Academy of Sciences of the …, 2025).

Tested on: prefrontal cortex gene expression
Assay: Transcriptomics (bulk mRNA sequencing of the prefrontal cortex)
Assay type: in vivo, mice
Details: 1 mg/kg IP; for log2FoldChange vs vehicle: mPFC 24 h; for Number of genes in the downregulated group / Number of genes in the upregulated group: p < 0.01 and absolute log2 FC > 0.2; for Number of genes in the downregulated group / Number of genes in the upregulated group / Number of differentially expressed genes (DEGs) compared to VEH: PFC 24 h; for Number of differentially expressed genes (DEGs) compared to VEH: uncorrected p < 0.01

Compound	log2FoldChange vs vehicle (gene Cav2 (ENSMUSG00000000058))	log2FoldChange vs vehicle (gene Cdc45 (ENSMUSG00000000028))	log2FoldChange vs vehicle (gene Gnai3 (ENSMUSG00000000001))	log2FoldChange vs vehicle (gene Narf (ENSMUSG00000000056))	log2FoldChange vs vehicle (gene Scml2 (ENSMUSG00000000037))	Number of genes in the downregulated group	Number of genes in the upregulated group	Number of differentially expressed genes (DEGs) compared to VEH
CCN(CC)C(=O)[C@@H]1C=C2c3cccc4ccn(c34)C[C@H]2N(C)C1 [(+)-JRT]	-0.008109	0.1746	-0.04695	0.04152	0.2378	34	18	114
CCN(CC)C(=O)[C@@H]1C=C2c3cccc4[nH]cc(c34)C[C@H]2N(C)C1 [LSD, lysergic acid diethylamide]	–	–	–	–	–	45	48	198
